Data from PubChem BioAssay AID504444 (National Center for Advancing Translational Sciences (NCATS), 2011).
Where “and” joins values, the source holds several entries; their conditions need not be identical. Equal values may be shown once. Screen size: about 360,000 compounds; about 7,500 (2.1%) were called active. Inconclusive means that the source gave no clear call. Such entries were picked first, then a sample of the others. The call rests on the fitted dose curve; in most records, active means well fitted inhibition curve with a large enough effect; inconclusive means small, poorly fitted or top-dose-only effect, or effect the other way; inactive means flat fitted curve, though single readings scatter. Potencies of inconclusive entries are doubtful fits and often do not repeat.

Assay: Nrf2 qHTS screen for inhibitors; further: nearly all actives have a fitted effect of over 60% in size
Details: A549 ARE-Fluc reporter, luciferase luminescence, 18-24 h; series mostly up to 46 µM
In short: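 Concentration-response testing used A549 ARE_Fluc cells at 5000 cells/well. Following an 18-24 h compound incubation, viability was read by fluorescence (Ex 405/Em 525) and luciferase output by luminescence.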
Potency means the concentration at half of the fitted maximal effect.

SMILES	Potency
CN(c1ccccc1)S(=O)(=O)c1cccc(NC(=O)c2nn(C)c(=O)c3ccccc23)c1	active: 23.1 µM
O=C(NC1(C(F)(F)F)C(=O)Nc2c1c(=O)[nH]c(=O)n2-c1ccc(F)cc1)c1ccccc1 (stereo unspecified)	inactive
CCOc1ccc(-n2c(=O)c3sc4ccccc4c3n(Cc3cccc(C)c3)c2=O)cc1	inactive
Cc1ccc(OC(=O)c2cc(-c3ccc(Cl)cc3)on2)c(C)c1	inconclusive: 18.4 µM [activator, partial curve, poor fit]
COc1ccc2cc(C(C)C(=O)Nc3cccc(S(=O)(=O)N(C)C)c3)ccc2c1 (stereo unspecified)	active: 16.4 µM
CCN(CC)C(=O)c1ccc(C(=O)c2ccccc2)cc1	inactive
Cn1cccc1/C=C1\CC(C(C)(C)C)C/C(=C\c2cccn2C)C1=O (stereo unspecified)	inconclusive: 3.26 µM [falling, partial curve, poor fit]
Cc1ccc(C(=O)NC(=S)Nc2ccc(CN3CCOCC3)cc2)cc1	inconclusive: 29.1 µM [falling, single point]
O=C1NC(c2ccccc2)=N/C1=C/c1ccco1	inconclusive: 8.2 µM [activator, partial curve]
CN(C)C(=O)c1cc(C(=O)c2ccccc2C(F)(F)F)c[nH]1	inconclusive: 16.4 µM [falling, partial curve]
CN(C(=O)COC(=O)c1ccc(C#N)cc1)c1ccccc1	inactive
CCn1ccc(C(=O)Nc2ncc(C)s2)n1	inconclusive: 0.651 µM [activator, full curve]
CCOc1ccc(C(C)=O)cc1N1C(=O)C2C3C=CC(O3)C2C1=O (stereo unspecified)	inactive
Cc1cccc(S(=O)(=O)Nc2ccc3c(c2)OCCO3)c1	inactive
CC(C)Cc1nnc(NC(=O)CSc2nc(O)c(-c3ccccc3)c(=O)[nH]2)s1	inactive
Cc1ccc(-n2c(C)cc(/C=C3\SC(=O)NC3=O)c2C)cc1	inconclusive: 6.51 µM [activator, partial curve]
Cc1ccc(OCc2ccc(C(=O)NCC3CCCO3)cc2)cc1 (stereo unspecified)	inconclusive: 2.59 µM [activator, full curve]
O=S(=O)(Nc1ccc2nc(-c3ccc(F)cc3)oc2c1)c1ccccc1	inconclusive: 9.2 µM [falling, partial curve]
O=C(CCn1c(=O)[nH]c2ccsc2c1=O)N1CCN(c2cccc(Cl)c2)CC1	inactive
NNc1nc(-c2ccccc2)cc(-c2ccccc2)n1	active: 9.2 µM
O=C(Nc1nc(-c2ccc(Cl)s2)cs1)c1ccccc1	inconclusive: 25.9 µM [falling, single point]
Cc1cc2c(s1)c1cnn(Cc3c(F)c(F)c(C)c(F)c3F)c(=O)c1n2C	inactive
O=C(Nc1ncccc1O)c1ccc2c(c1)OCO2	inconclusive: 23.1 µM [activator, single point]

A few values from the list:
Value for `O=C1NC(c2ccccc2)=N/C1=C/c1ccco1` under Potency: inconclusive: 8.2 µM [activator, partial curve]
Value for `CN(C(=O)COC(=O)c1ccc(C#N)cc1)c1ccccc1` under Potency: inactive

Arranged by SMILES length (descending): some entries from above.
SMILES	Potency
O=S(=O)(Nc1ccc2nc(-c3ccc(F)cc3)oc2c1)c1ccccc1	inconclusive: 9.2 µM [falling, partial curve]
Cc1ccc(OC(=O)c2cc(-c3ccc(Cl)cc3)on2)c(C)c1	inconclusive: 18.4 µM [activator, partial curve, poor fit]
O=C(Nc1nc(-c2ccc(Cl)s2)cs1)c1ccccc1	inconclusive: 25.9 µM [falling, single point]

The listing continues:

SMILES	Potency
C/C(=N\NC(=O)c1ccccc1)c1c(C)[nH]n(-c2ccccc2)c1=O	inconclusive: 14.6 µM [falling, partial curve]
COc1cccc(CNC(=O)c2ccc3nc(N4CCCCC4)sc3c2)c1OC	inconclusive: 29.1 µM [falling, single point]
Cc1c(NC(=O)COC(=O)/C=C/c2cccc(Br)c2)c(=O)n(-c2ccccc2)n1C	inconclusive: 29.1 µM [activator, single point]
CN1CCc2c(OCc3ccc(F)cc3)cccc2C1=O	inconclusive: 29.1 µM [falling, single point]
O=C1c2ccccc2C(=O)N1CCc1csc(NNc2nc(CCN3C(=O)c4ccccc4C3=O)cs2)n1	inactive
O=c1c2cccnc2n(Cc2ccccc2F)c(=O)n1Cc1ccc(F)cc1	inconclusive: 29.1 µM [falling, single point]
CCCCN1C(=O)c2[nH]nc(-c3ccccc3O)c2C1c1cc(Br)c(O)c(OC)c1 (stereo unspecified)	inactive
CCOc1ccccc1OCCn1nnc2ccccc21	inactive
O=C(Nc1cccc(NC(=O)c2cccs2)c1)c1ccc(Br)cc1	inconclusive: 32.6 µM [falling, single point]
C[C@]12CCC(=O)C=C1CC[C@@H]1[C@@H]2[C@@H](O)C[C@@]2(C)[C@H]1CC[C@]2(O)C(=O)CO	active: 164 nM and active: 29.1 nM
Cc1nn(Cc2ccc(C(=O)NC(C)(C)C)o2)c(C)c1Br	active: 18.4 µM
CC(C)C(=O)Nc1cccc(-c2nc3ncccc3o2)c1	inactive
CSc1c(CC(=O)Nc2ccccc2C(F)(F)F)n(Cc2ccccc2)c2ccccc12	inconclusive: 20.6 µM [falling, single point]
O=C(COC(=O)CSc1ccc([N+](=O)[O-])cc1)NCCCc1ccccc1	inconclusive: 0.0073 µM [activator, full curve, poor fit]
CCCCC1C(=O)CC[C@H]2[C@@H]1CC(=O)[C@@H]2C/C=C\CCCC(=O)O (stereo partly specified)	inconclusive: 23.1 µM [falling, partial curve]
O=C1N[C@@H](Cc2ccccc2)COC(=O)[C@H](Cc2ccc(F)cc2)CC/C=C/C[C@@H]1CC(=O)N(CCO)Cc1ccccc1	inactive
Cc1ccc(CNc2nc(C)c(C(=O)N(C)C)s2)cc1	inconclusive: 16.4 µM [activator, single point]
O=[N+]([O-])c1ccc(/C=N/n2c(CO)nc3ccccc32)s1	inactive
C/C(=N\NC(=O)c1ccc(Cl)cc1)c1cccs1	inconclusive: 1.84 µM [activator, full curve]
O=C(Nc1nc2ccccc2[nH]1)c1ccc(Cl)cc1	inconclusive: 29.1 µM [falling, single point]
COc1ccc(CCNCc2c(C(=O)O)c(C)n(Cc3c(F)cccc3Cl)c2C)cc1OC	inconclusive: 18.4 µM [activator, partial curve, poor fit]
Cc1ccnc(NC(=O)CCNC(=O)c2ccccc2Cl)c1	inconclusive: 18.4 µM [activator, partial curve, poor fit]
COc1ccc(N2CCN(C(c3cccs3)C(C)NS(=O)(=O)c3ccccc3)CC2)cc1 (stereo unspecified)	inconclusive: 18.4 µM [falling, single point]
